Measured values from patent CN115677859A.
These are yes or no findings as the source states them, for the method shown. Some entries that bind do so weakly or less than the wild type.

B1: 亲本抗体Anti-PD-L1 (中国专利申请CN 201910174374.8的抗人PD-L1单克隆抗体, 安科生物) (antibody, V domains shown)
VH: DVQLVESGGGLVQPGGSLRLSCTVSGIDLSSYDMTWVRQAPGKGLEYIGYISYVSRTYYADSVKGRFTISKDTSKNTVYLQMNSLRAEDTAVYYCARDRPDGAATNLWGQGTLVTVSS
VL: DIQMTQSPSTLSASVGDRVTITCQSSQNVYSNNRLSWYQQKPGKAPKLLIYWTSFLASGVPSRFSGSGSGTEFTLTISSLQPDDFATYYCAGGYSGNLYTFGQGTKLEIKR
B2: 亲本抗体Anti-4-1BB (中国专利申请CN 201911105611.1中的抗人4-1BB单克隆抗体Hanke10F4) (antibody, V domains shown)
VH: QVQLQESGPGLVKPSETLSLTCTVSGSSLTSYGVHWVRQPPGKGLEGLGVIWPGGSTNYNSALMSRVTISKDNSKSQVSLKMSSLTAADTAVYYCARVTGTWYFDVWGQGTTVTVSS
VL: DIQMTQSPSSLSASLGDRVTISCSASQGISNYLNWYQQKPDGTVKLLIYYTSTLHSGVPSRFSGSGSGTDYTLTISSLQPEDIATYYCQQYSKLPWTFGGGTKLEIK

Experiments:
[1] = molecular target: 猴PD-L1胞外段 (monkey PD-L1 extracellular domain) (monkey (猴)); assay: ELISA, monkey PD-L1 ECD coated, anti-human HRP
[2] = molecular target: 猴4-1BB胞外段 (monkey 4-1BB extracellular domain) (monkey (猴)); assay: ELISA, monkey 4-1BB ECD coated, anti-human HRP

Binder	binding [1]	binding [2]
B1	binds	
B2		binds
